For at least one entry, the source does not settle the construct or the ends of the probe. A weaker result is weaker than the reference pair of the same experiment. For some assays here: The direction of at least one scale is not stated here.
Assays:
Test in all cases: EMSA
[1] = biological target: phiC31 integrase E153A (Streptomyces phage phiC31) (UniProt Q38194); conditions: recombinant protein, protein details: C-terminal His, label: biotin, double-strand end-labeled
[2] = biological target: phiC31 integrase I141A (Streptomyces phage phiC31) (UniProt Q38194); conditions: recombinant protein, protein details: C-terminal His, label: biotin, double-strand end-labeled
[3] = biological target: phiC31 integrase I432A (Streptomyces phage phiC31) (UniProt Q38194); conditions: recombinant protein, protein details: C-terminal His, label: biotin, double-strand end-labeled
[4] = biological target: phiC31 integrase L143A (Streptomyces phage phiC31) (UniProt Q38194); conditions: recombinant protein, protein details: C-terminal His, label: biotin, double-strand end-labeled
[5] = biological target: phiC31 integrase R18A (Streptomyces phage phiC31) (UniProt Q38194); conditions: recombinant protein, protein details: C-terminal His, label: biotin, double-strand end-labeled
[6] = biological target: phiC31 integrase C376A/G377A (Streptomyces phage phiC31) (UniProt Q38194); conditions: complexes I and II, group 2-7 fold decrease; recombinant protein; protein details: C-terminal His; label: biotin, double-strand end-labeled
[7] = biological target: phiC31 integrase V566A (Streptomyces phage phiC31) (UniProt Q38194); conditions: complex I, group 2-7 fold decrease; recombinant protein; protein details: C-terminal His; label: biotin, double-strand end-labeled
[8] = biological target: phiC31 integrase V571A (Streptomyces phage phiC31) (UniProt Q38194); conditions: complex I, group 2-7 fold decrease; recombinant protein; protein details: C-terminal His; label: biotin, double-strand end-labeled
[9] = biological target: phiC31 integrase Y393A (Streptomyces phage phiC31) (UniProt Q38194); conditions: complex I, group 2-7 fold decrease; recombinant protein; protein details: C-terminal His; label: biotin, double-strand end-labeled
[10] = 400 nM protein, complexes I and II
[11] = 400 nM protein, complexes I, II, III
[12] = complex II, group 2-7 fold decrease
[13] = complexes I, II, III, group 2-7 fold decrease

CGGGTGCCAGGGCGTGCCCTTGGGCTCCCCGGGCGCGTACT (double strand) [attB 41 bp]
binding signal [1, 10]: 46 % of WT
binding signal [2, 11]: 54 % of WT
binding signal [3, 11]: 61 % of WT
binding signal [4, 10]: 38 % of WT
binding signal [5, 10]: 16 % of WT

GTAGTGCCCCAACTGGGGTAACCTTTGAGTTCTCTCAGTTGGGGGCGTAG (double strand) [attP 50 bp]
binding result [6]: binds more weakly
binding result [1, 12]: binds more weakly
binding result ([2]; complex III, group 2-7 fold decrease): binds more weakly
binding result [3, 12]: binds more weakly
binding result [4, 13]: binds more weakly
binding result [5, 13]: binds more weakly
binding result [7]: binds more weakly
binding result [8]: binds more weakly
binding result [9]: binds more weakly

Reference: PMC2810336
